From article PMC7819943, “Rice protein-binding microarrays: a tool to detect cis-acting elements near promoter regions in rice”
The list shows a part of the results.

biological target: T1, OsSMF1 (Oryza sativa, UniProt Q6ZLB0 1-436); test: protein-binding microarray (RPBM); PBS, 2% BSA, 51.3 ng/ul salmon testes DNA, 50 uM zinc acetate, 200 nM TF, 25 C, 1 h; high values mean tight binding; conditions: protein: recombinant; tags: N-terminal polyhistidine and DsRed monomer fusion (pET32a); chain copies: 2; label: CyDye5-dUTP incorporated in the synthesized complementary strand; 3' TTTTT single-stranded linker to array surface; dsDNA, one strand shown
T1 sequence: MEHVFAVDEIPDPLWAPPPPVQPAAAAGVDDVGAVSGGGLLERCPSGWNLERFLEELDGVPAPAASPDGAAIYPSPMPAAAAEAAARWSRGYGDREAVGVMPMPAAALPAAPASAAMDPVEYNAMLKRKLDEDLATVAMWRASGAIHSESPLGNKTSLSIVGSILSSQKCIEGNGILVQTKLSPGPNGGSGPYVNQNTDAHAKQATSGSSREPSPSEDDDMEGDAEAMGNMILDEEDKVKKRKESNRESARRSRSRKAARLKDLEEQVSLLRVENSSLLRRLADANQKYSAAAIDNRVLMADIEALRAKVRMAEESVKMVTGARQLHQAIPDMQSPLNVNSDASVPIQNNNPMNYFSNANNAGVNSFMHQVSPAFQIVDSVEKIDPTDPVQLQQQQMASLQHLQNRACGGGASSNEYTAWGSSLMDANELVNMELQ
Outline: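 Binding signal is defined as the fluorescence intensity of each feature in arbitrary units, read on an Axon 4000B scanner. Transcription factors with N-terminal polyhistidine and DsRed fusions came from E. coli BL21-CodonPlus and were purified on Ni–NTA. They were incubated at 200 nM for 1 h at 25 °C on a custom Agilent array that had been made double-stranded with Cy5-dUTP, with 50 µM zinc acetate present, and the array was washed.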

Sequence | binding signal
TGATGTGGTGCCTACGTGGCTTGTTTGACTAGGTCTCCGTCGGAGTCACCTAGTGCAG | 17700 fluorescence intensity (a.u.)
GCCACTCCCTCCCTCATCTCCCCTGTGCCGTGACGTCGTTCGGAGTCACCTAGTGCAG | 3620 fluorescence intensity (a.u.)
GTTTACCGTACTAGAGGTGCTGAGTGTGCCAGCTTGCTGCCGGAGTCACCTAGTGCAG | 4090 fluorescence intensity (a.u.)
CTGAACCTCTCAGTTTGAGTCACTTTCATAGCATCATTGTCGGAGTCACCTAGTGCAG | 4450 fluorescence intensity (a.u.)
AGATAGTGGTGGTGGTCTGTGCATCGTTGACTTGATCATGCGGAGTCACCTAGTGCAG | 3360 fluorescence intensity (a.u.)
ACAAAACTAGCCGAACAATGACACGTCGCTTTCGTTTAGTCGGAGTCACCTAGTGCAG | 8240 fluorescence intensity (a.u.)
GTGTCATTTCATTCACTGGTCGGCTATATCTGGGCATATGCGGAGTCACCTAGTGCAG | 53800 fluorescence intensity (a.u.)
GGAACTGATTGTATGCCTTCTGACTGTATAAACTATTCATCGGAGTCACCTAGTGCAG | 4660 fluorescence intensity (a.u.)
TGGTTTATGTGACGTTTGCGTGGCTTCTTTGATTAGGTATCGGAGTCACCTAGTGCAG | 6330 fluorescence intensity (a.u.)
GAGCTTTCTGATTTGCCACGACGACGTATCGAACGGCCAGCGGAGTCACCTAGTGCAG | 4990 fluorescence intensity (a.u.)
CGCGACATCGTGACGGCGCGCGTCGCCGCCGACCCCGCCGCGGAGTCACCTAGTGCAG | 36200 fluorescence intensity (a.u.)
AGACTGAGCACACACCCACACCTGCCACGTGTCCCTGGTTCGGAGTCACCTAGTGCAG | 31900 fluorescence intensity (a.u.)
TCGCTTCCCCGACGCCAATCCACGACACCTCTCGTGCTCCCGGAGTCACCTAGTGCAG | 3820 fluorescence intensity (a.u.)
ATCCTCACGAAACAAACGCATAAGGTGAGCGATGAGTCATCGGAGTCACCTAGTGCAG | 5700 fluorescence intensity (a.u.)
ATAAACAAGTACAAGAGGAGGGGACAGGGGTGCGGTGTGTCGGAGTCACCTAGTGCAG | 4170 fluorescence intensity (a.u.)
GGGCGGTTTTCTGCAAAAGTGCATCCAACAGGTGAGAGAGCGGAGTCACCTAGTGCAG | 3640 fluorescence intensity (a.u.)
ACCATGGCTTTGAATTCTTTTACTGCACGTGTACAGATGTCGGAGTCACCTAGTGCAG | 3960 fluorescence intensity (a.u.)
GTAGGATGTTGCCCTGCAACTCACGTCACTTCTCATAAGACGGAGTCACCTAGTGCAG | 4280 fluorescence intensity (a.u.)
ACCGCAGATGTTGTAAGCGAGCCAATGTTGTCATGTGGGCCGGAGTCACCTAGTGCAG | 3870 fluorescence intensity (a.u.)
AAAGGCCACGCCACGCCACGCAACCGTCGTCGCGCTCCATCGGAGTCACCTAGTGCAG | 16400 fluorescence intensity (a.u.)
CATAGGTTTCGTCCGACGTGTCGTTTTGGCTCAAGCGTCACGGAGTCACCTAGTGCAG | 12300 fluorescence intensity (a.u.)
GCCCATCCGAACACGGCCTGACAGGCTGTGATGACGGCCTCGGAGTCACCTAGTGCAG | 3680 fluorescence intensity (a.u.)
GAAAATCGTTTACCTAGTAGTGTCTTTAGCAGGTTTTCTCCGGAGTCACCTAGTGCAG | 9500 fluorescence intensity (a.u.)
AGATAGACAAACCAAAACAAAACTAAGCTTCAAGTCCAAACGGAGTCACCTAGTGCAG | 26400 fluorescence intensity (a.u.)
CCCACATCGCTCCGCGTCATTAGATTTAGCACTTTATCTTCGGAGTCACCTAGTGCAG | 5240 fluorescence intensity (a.u.)
GTCGGAAGCTATCGAGACGATGGAGAGGGATGGAAGATATCGGAGTCACCTAGTGCAG | 31800 fluorescence intensity (a.u.)
GTTGCACGACTTATCAACGTGTTATGTACTTATGTGCCATCGGAGTCACCTAGTGCAG | 3440 fluorescence intensity (a.u.)

Sequence | binding signal
CACTGTCAGGATTGCCTCCCCGGTGCATGCACACATCCTCCGGAGTCACCTAGTGCAG | 3940 fluorescence intensity (a.u.)
AACGAAGATTTAAGTAGTACACTGATCGGGATGAGGTGGCCGGAGTCACCTAGTGCAG | 4260 fluorescence intensity (a.u.)
GCCTTTCTCTCCACCGCGATTTCTATATATAAAACGCCCCCGGAGTCACCTAGTGCAG | 9620 fluorescence intensity (a.u.)
CGACCACCTTTCATCCCAACGCACATACGCACCTACGCATCGGAGTCACCTAGTGCAG | 3160 fluorescence intensity (a.u.)
GAGAGAGGTTGTGCAAGGCTGAGCATGCAAACTCGTGCATCGGAGTCACCTAGTGCAG | 27000 fluorescence intensity (a.u.)
GTGTATATATACGTGTACATGCATGTACACGCAATCTCTCCGGAGTCACCTAGTGCAG | 8340 fluorescence intensity (a.u.)
CTGGCCTACAAGGGAGGTTGGACATGACAAGGACTCCAGGCGGAGTCACCTAGTGCAG | 4000 fluorescence intensity (a.u.)
ACCGAAAGTGAGACGAGCTGCCCAGTTTTCCACACTCCATCGGAGTCACCTAGTGCAG | 3400 fluorescence intensity (a.u.)
CTCCACAGCAGCTTGCCGGCCTCCTTGCTTTGCATTGCATCGGAGTCACCTAGTGCAG | 15400 fluorescence intensity (a.u.)
CACGAGCTGGTGGGCATCGAGGACTCCACACACGCGCATCCGGAGTCACCTAGTGCAG | 42800 fluorescence intensity (a.u.)
AAAGAAGGAAAGGTGGTAGTACTACGTGTCAGGTCCATGGCGGAGTCACCTAGTGCAG | 7360 fluorescence intensity (a.u.)
AAGTTTGGCTGTATTTATTCCACACCATAATTGAAAGTTTCGGAGTCACCTAGTGCAG | 3160 fluorescence intensity (a.u.)
ACTTCCCTTTCGAGGAGTGCATGAACTTTGAGACGTCAGCCGGAGTCACCTAGTGCAG | 4090 fluorescence intensity (a.u.)
CAACCTTCCTCGTGCCGCCCATTGCGTGGTCACCACCCTTCGGAGTCACCTAGTGCAG | 4060 fluorescence intensity (a.u.)
CTCCGATACGTATCCCGTACGTATCGCTATTTACTTCGATCGGAGTCACCTAGTGCAG | 4930 fluorescence intensity (a.u.)
GAGAGGAGGCTGCTGTGGCCACGCTAGCATGTGGAGCTCACGGAGTCACCTAGTGCAG | 4550 fluorescence intensity (a.u.)
TGTATTGTGGGCCCACACGTCATCCTTTCTTTCCAACCCTCGGAGTCACCTAGTGCAG | 22300 fluorescence intensity (a.u.)
ATTTTCCATTTTGAAAATTGACGGAAATAGTCGCCTACCGCGGAGTCACCTAGTGCAG | 19200 fluorescence intensity (a.u.)
GGCCCCACTGCGCAGCGGGACAATGAAGGACATATTTGTACGGAGTCACCTAGTGCAG | 22600 fluorescence intensity (a.u.)
GTCCGTACGGCTGCGGCTGTAGATGACGTCGTTGCAGTGGCGGAGTCACCTAGTGCAG | 5510 fluorescence intensity (a.u.)
GTCTCCCTCCACCCATGCCGTGGCAATCGAGCTCATCTCCCGGAGTCACCTAGTGCAG | 4910 fluorescence intensity (a.u.)
GATCTCGCCGAACGCCGCAAACTCCTTGGTGAGCGCCTTCCGGAGTCACCTAGTGCAG | 3580 fluorescence intensity (a.u.)
AAATACTCATAATAATTGCTAGTGAATGATGATGTGGCACCGGAGTCACCTAGTGCAG | 19100 fluorescence intensity (a.u.)
GAAAGTGGACGCGCGCGGTCTGGCGTCACCTGGGCCGAAACGGAGTCACCTAGTGCAG | 3320 fluorescence intensity (a.u.)
GGATTGGCGGAAAGCTGACTGTGCTGTTCTCATATCCTTTCGGAGTCACCTAGTGCAG | 7200 fluorescence intensity (a.u.)
GTATTTCTATCCAGGGACGAATTTCAGACTCAGTGACAACCGGAGTCACCTAGTGCAG | 14500 fluorescence intensity (a.u.)
ATTGAAGATGCACCACAATGTATATATGTGTAGAGTGGGTCGGAGTCACCTAGTGCAG | 3560 fluorescence intensity (a.u.)

Laid out differently: results already given

| Sequence | binding signal |
| --- | --- |
| GAGAGAGGTTGTGCAAGGCTGAGCATGCAAACTCGTGCATCGGAGTCACCTAGTGCAG | 27000 fluorescence intensity (a.u.) |
| GTGTATATATACGTGTACATGCATGTACACGCAATCTCTCCGGAGTCACCTAGTGCAG | 8340 fluorescence intensity (a.u.) |
| CTGGCCTACAAGGGAGGTTGGACATGACAAGGACTCCAGGCGGAGTCACCTAGTGCAG | 4000 fluorescence intensity (a.u.) |
| ACCGAAAGTGAGACGAGCTGCCCAGTTTTCCACACTCCATCGGAGTCACCTAGTGCAG | 3400 fluorescence intensity (a.u.) |
| CTCCACAGCAGCTTGCCGGCCTCCTTGCTTTGCATTGCATCGGAGTCACCTAGTGCAG | 15400 fluorescence intensity (a.u.) |
| CACGAGCTGGTGGGCATCGAGGACTCCACACACGCGCATCCGGAGTCACCTAGTGCAG | 42800 fluorescence intensity (a.u.) |
| AAAGAAGGAAAGGTGGTAGTACTACGTGTCAGGTCCATGGCGGAGTCACCTAGTGCAG | 7360 fluorescence intensity (a.u.) |
| AAGTTTGGCTGTATTTATTCCACACCATAATTGAAAGTTTCGGAGTCACCTAGTGCAG | 3160 fluorescence intensity (a.u.) |
| ACTTCCCTTTCGAGGAGTGCATGAACTTTGAGACGTCAGCCGGAGTCACCTAGTGCAG | 4090 fluorescence intensity (a.u.) |
| CAACCTTCCTCGTGCCGCCCATTGCGTGGTCACCACCCTTCGGAGTCACCTAGTGCAG | 4060 fluorescence intensity (a.u.) |
| CTCCGATACGTATCCCGTACGTATCGCTATTTACTTCGATCGGAGTCACCTAGTGCAG | 4930 fluorescence intensity (a.u.) |
| GAGAGGAGGCTGCTGTGGCCACGCTAGCATGTGGAGCTCACGGAGTCACCTAGTGCAG | 4550 fluorescence intensity (a.u.) |
| TGTATTGTGGGCCCACACGTCATCCTTTCTTTCCAACCCTCGGAGTCACCTAGTGCAG | 22300 fluorescence intensity (a.u.) |
| ATTTTCCATTTTGAAAATTGACGGAAATAGTCGCCTACCGCGGAGTCACCTAGTGCAG | 19200 fluorescence intensity (a.u.) |
| GGCCCCACTGCGCAGCGGGACAATGAAGGACATATTTGTACGGAGTCACCTAGTGCAG | 22600 fluorescence intensity (a.u.) |
| GTCCGTACGGCTGCGGCTGTAGATGACGTCGTTGCAGTGGCGGAGTCACCTAGTGCAG | 5510 fluorescence intensity (a.u.) |
